These are yes or no findings as the source states them, for the method shown. Some binding calls cover weakened binding; strength is not graded here.
Molecular target: Human C3 (human, UniProt P01024 23-1663)
Test: told in the text of Example 5; method not given

Amino acid sequences for entries named in this document (tags omitted). Residues count along the entry.
UniProt P01024, residues 23-1663: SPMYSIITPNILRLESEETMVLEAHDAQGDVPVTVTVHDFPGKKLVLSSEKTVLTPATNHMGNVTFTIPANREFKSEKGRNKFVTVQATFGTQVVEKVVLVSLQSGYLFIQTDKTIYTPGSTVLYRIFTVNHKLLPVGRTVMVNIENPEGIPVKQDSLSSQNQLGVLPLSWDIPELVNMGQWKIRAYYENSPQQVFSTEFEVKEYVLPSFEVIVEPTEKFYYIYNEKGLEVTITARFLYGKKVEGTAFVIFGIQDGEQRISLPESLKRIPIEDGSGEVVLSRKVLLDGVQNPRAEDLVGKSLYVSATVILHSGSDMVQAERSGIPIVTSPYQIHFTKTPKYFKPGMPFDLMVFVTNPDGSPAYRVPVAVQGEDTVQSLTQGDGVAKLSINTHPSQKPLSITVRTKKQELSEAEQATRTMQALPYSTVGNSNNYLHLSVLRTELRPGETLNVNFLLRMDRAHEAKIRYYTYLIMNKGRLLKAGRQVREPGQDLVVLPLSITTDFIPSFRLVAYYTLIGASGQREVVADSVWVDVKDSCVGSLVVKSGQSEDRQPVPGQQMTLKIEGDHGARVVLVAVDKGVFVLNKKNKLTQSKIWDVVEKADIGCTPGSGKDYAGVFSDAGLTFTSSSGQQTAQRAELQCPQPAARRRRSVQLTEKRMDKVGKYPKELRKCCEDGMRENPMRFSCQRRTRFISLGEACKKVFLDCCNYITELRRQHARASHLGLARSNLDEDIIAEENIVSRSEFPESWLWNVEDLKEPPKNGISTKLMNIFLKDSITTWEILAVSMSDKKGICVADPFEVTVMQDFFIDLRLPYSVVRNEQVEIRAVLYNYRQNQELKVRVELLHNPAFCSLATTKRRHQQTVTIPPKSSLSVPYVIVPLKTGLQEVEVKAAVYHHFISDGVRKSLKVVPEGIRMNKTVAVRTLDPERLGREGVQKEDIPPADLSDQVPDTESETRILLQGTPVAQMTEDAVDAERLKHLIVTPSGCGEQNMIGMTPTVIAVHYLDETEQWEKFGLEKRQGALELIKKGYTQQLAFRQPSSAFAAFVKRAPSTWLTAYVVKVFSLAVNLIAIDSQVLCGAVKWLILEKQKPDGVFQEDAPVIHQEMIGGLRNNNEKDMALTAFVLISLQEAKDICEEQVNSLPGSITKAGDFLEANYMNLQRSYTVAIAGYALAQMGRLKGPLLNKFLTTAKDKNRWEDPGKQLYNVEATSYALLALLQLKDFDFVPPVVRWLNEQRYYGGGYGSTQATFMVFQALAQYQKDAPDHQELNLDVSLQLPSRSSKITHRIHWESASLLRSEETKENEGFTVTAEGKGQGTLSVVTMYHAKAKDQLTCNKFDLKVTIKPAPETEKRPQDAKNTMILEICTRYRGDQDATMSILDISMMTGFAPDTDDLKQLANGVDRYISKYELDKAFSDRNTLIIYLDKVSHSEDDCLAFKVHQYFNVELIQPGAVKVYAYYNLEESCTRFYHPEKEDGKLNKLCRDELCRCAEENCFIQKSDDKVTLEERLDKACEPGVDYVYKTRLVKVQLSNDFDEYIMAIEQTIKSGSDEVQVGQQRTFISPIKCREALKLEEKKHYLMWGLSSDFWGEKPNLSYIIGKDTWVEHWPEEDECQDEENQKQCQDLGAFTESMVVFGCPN

Question: With FCIWQDWGEHRCTGAES (N-acetyl; C-terminal amide; disulfide C2-C12; W4 is 1-Me-Trp) [Compound 61] as the binder, how does the binding read?
Answer: Its binding is “binds”.
